Source: PubChem BioAssay AID1259308 (NCATS, 2017)
This is one part, drawn at random, of about 59,000 reagents. In the full data, about 1,510 (2.6%) are marked active. 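Calls use total luciferase alone and ignore viability, so some active siRNAs may act by altering cell number.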 A number with no mark means an inactive call. Reagents against one gene are numbered here. No sequences are given here.

- Screen: 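Knock-downs that increase output of a recombinant reporter protein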 (primary screen)
- Cells: human HEK293 embryonic kidney cells stably expressing firefly luciferase (HEK-CMV-Luc2-Hygro)
- Knock-down reagent: single siRNA against human genes, 0.8 pmol siRNA per well
- Time to read-out: 72 h
- Measured: 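Reporter luminescence and viable-cell signal on separate replicate plates, given as percent of non-targeting control and median/MAD z-scores, plus per-cell luciferase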
- Reading the numbers: total luciferase, z-score and total luciferase, % of control: higher = more reporter protein produced; luciferase per cell, z-score: higher = more reporter output per viable cell; viable cells, % of control: higher = more viable cells
- Rule for the call: 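Active when the median/MAD z-score for overall luciferase is greater than 3; a gene was taken forward for validation with new siRNAs if at least two of its three siRNAs passed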
- Meaning of the calls: active = raised luciferase; inactive = no rise

gene symbol | reagent | total luciferase, z-score | total luciferase, % of control | luciferase per cell, z-score | viable cells, % of control
PUS7 | 1 | 2.01 | 122 | 0.859 | 109
PUS7 | 2 | 0.934 | 100 | -0.0148 | 113
PUS7 | 3 | 0.329 | 88.4 | 0.0843 | 96.6
LTAP1 | 1 | 0.697 | 95.8 | 0.0219 | 106
LTAP1 | 2 | -0.203 | 77.8 | -0.0265 | 87.6
LTAP1 | 3 | 2.18 | 125 | 2.18 | 78.9
LYLDT1 | 1 | 0.607 | 94 | 0.855 | 83.8
LYLDT1 | 2 | -1.11 | 59.7 | -0.755 | 81.4
LYLDT1 | 3 | -0.296 | 76 | -0.00696 | 85.1
PDZK1IP1 | 1 | -1.05 | 61 | -0.997 | 88.6
PDZK1IP1 | 2 | -0.433 | 73.3 | -0.488 | 93.1
PDZK1IP1 | 3 | 1.28 | 107 | 2.11 | 68.7
MLC1 | 1 | -0.644 | 69.1 | -1.04 | 101
MLC1 | 2 | -0.406 | 73.8 | -0.858 | 103
MLC1 | 3 | 1.27 | 107 | 1.65 | 77.5
LYSMD2 | 1 | -0.0423 | 81 | -0.524 | 104
LYSMD2 | 2 | -1.64 | 49.3 | -1.75 | 87.3
LYSMD2 | 3 | -1.39 | 54.3 | -1.1 | 81.1
KDM4D | 1 | 3.38 (active) | 149 | 1.43 | 114
KDM4D | 2 | 0.478 | 91.4 | 0.466 | 90.4
KDM4D | 3 | 1.36 | 109 | 0.24 | 114
FLJ37786 (retired record) | 1 | 0.483 | 91.5 | -0.279 | 110
FLJ37786 (retired record) | 2 | -0.0451 | 81 | 0.373 | 82
FLJ37786 (retired record) | 3 | 1.22 | 106 | 0.509 | 104
PTK6 | 1 | -0.0433 | 81 | 0.161 | 86.8
PTK6 | 2 | 0.981 | 101 | 1.18 | 83
PTK6 | 3 | 0.844 | 98.7 | 1.19 | 80.6
KCNA5 | 1 | -0.239 | 77.1 | -0.14 | 89.4
KCNA5 | 2 | 2.1 | 124 | 1.38 | 96.1
KCNA5 | 3 | 1.46 | 111 | 0.549 | 107
HSPA12B | 1 | -0.409 | 73.8 | 1.75 | 52
HSPA12B | 2 | -0.233 | 77.2 | -0.362 | 95
HSPA12B | 3 | 1.09 | 104 | 0.619 | 98.4
MARCHF11 | 1 | 0.352 | 88.9 | -0.12 | 103
MARCHF11 | 2 | 0.964 | 101 | 0.769 | 92.2
MARCHF11 | 3 | -0.127 | 79.4 | -0.654 | 105
FURIN | 1 | -2.56 | 31 | -3.02 | 76.7
FURIN | 2 | -0.607 | 69.8 | 0.0685 | 76.6
FURIN | 3 | -1.62 | 49.7 | -1.01 | 72.4
MPZL1 | 1 | 0.983 | 101 | 0.797 | 91.9
MPZL1 | 2 | 1.54 | 113 | 2.03 | 73.6
MPZL1 | 3 | 0.788 | 97.6 | 0.779 | 88.8
FOSB | 1 | -0.309 | 75.7 | -0.576 | 98.5
FOSB | 2 | 0.855 | 98.9 | 0.727 | 91.3
FOSB | 3 | 0.323 | 88.3 | 1.53 | 66
WFIKKN1 | 1 | -1.69 | 48.3 | -1.21 | 74.4
WFIKKN1 | 2 | 0.362 | 89.1 | 0.686 | 83.1
WFIKKN1 | 3 | -0.366 | 74.6 | -0.764 | 102
ZNF83 | 1 | 1.27 | 107 | 0.639 | 101
ZNF83 | 2 | 4.11 (active) | 164 | 2.73 | 89.1
ZNF83 | 3 | -0.145 | 79 | 0.924 | 69.2
ZNF83 | 4 | 0.9 | 99.8 | 1.44 | 76.2
ZNF83 | 5 | -0.649 | 69 | -0.855 | 96.5
ZNF83 | 6 | -0.477 | 72.4 | -0.661 | 96.3
PCDHGA8 | 1 | 0.501 | 91.8 | 0.277 | 95.4
PCDHGA8 | 2 | -0.3 | 75.9 | -0.106 | 87.3
PCDHGA8 | 3 | 0.308 | 88 | 0.83 | 79
